The exact form of at least one protein or probe is not confirmed. Weaker means in comparison with the reference protein, sequence or condition of that experiment.
Tested on: eIF-4E (eukaryotic initiation factor 4E, cap-binding protein)
Experiment: EMSA
Conditions: m7Gppp cap at RNA 5' end, 0 C, purified recombinant protein, label: 32P on RNA, DNA:RNA hybrid
[1] = enhancement of eIF-4E:m7GpppRNA complex by antisense, range over three oligos, 1.2 uM eIF-4E, 40 mM HEPES pH 7.4, 100 mM KCl

Does “GAGCAGCUCCUCUGCUACUCAGA / CTCTGAGTAGCAGAGGAGCU [capped 23-mer RNA hybridized to ISIS 3251T (Tren)]” bind (FITC at RNA 3' end, triethylene tetramine tethered to 3'-terminal oxidized U of antisense, decreased eIF-4E complexation vs same oligo without Tren)?
Result: binds more weakly

Does “GAGCUCCUCUGCUACUCAGA / TCTGAGTAGCAGAGGAGCTCA” bind [1]?
Result: binds

Does “GAGCAGCUCCUCUGCUACUCAGA / CTCTGAGTAGCAGAGGAGCU [capped 23-mer RNA hybridized to ISIS 3251]” bind (FITC at RNA 3' end, 3'-terminal ribo-U on antisense, reference complex without Tren)?
Result: binds

Does “GAGCUCCUCUGCUACUCAGA / TCTGAGTAGCAGAGGAGCTCC” bind [1]?
Result: binds

Does “GAGCUCCUCUGCUACUCAGA / TCTGAGTAGCAGAGGAGCTCT” bind [1]?
Result: binds

Reference: US5643780
